In the RNAGym collection of RNA variant scans (doi:10.1126/science.aae0568) one finds yeast fitness data, which are given here for 166 variants.

This sample is rich in variants without activity.

Sequences and labels used below:
B1: tRNA (parent)
chain: GUUCCGUUGGCGUAAUGGUAACGCGUCUCCCUCCUAAGGAGAAGACUGCGGGUUCGAGUCCCGUACGGAACG

The variants in this data set derive from B1. Kind of data set: yeast fitness relative to wild type (ratio to wild type); higher = fitter; tRNA-Arg(CCU), competitive growth, 37 C, YPD. Summed up: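 For this measurement, the tRNA-Arg(CCU) gene was varied by chemical synthesis at a 3% per-site mutation rate across 69 sites, and each variant was placed at the native genomic locus in Saccharomyces cerevisiae. The pooled strains went through a 24-hour competition in YPD at 37°C in six parallel replicates, with amplicons from start and end populations read by 100-nucleotide paired-end sequencing. Darwinian fitness relative to wild type followed from the change in each genotype's frequency. Genotypes needed ≥ 100 starting reads, and estimates < 0.5 were set to 0.5.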
Take U8G U16A A36C C66U: the yeast fitness was not above 0.5.

Turning to U2G G6A C27U G63A A65G, the yeast fitness is not above 0.5.

With U2C C29A C34A G56A, the yeast fitness is not above 0.5.

For the variant C4G C11G C61A, the yeast fitness was not above 0.5.

For the variant C29U U47C, the yeast fitness was determined as 0.923.

Regarding C4A G12C U19C C24G A43U G67A, the yeast fitness was not above 0.5.

With G10C C46U C49A C60A A70C, the yeast fitness was not above 0.5.

Turning to A14G A40C C60G C66G A69U, the yeast fitness is not above 0.5.

For G10C A20G C24U G39C, the yeast fitness is not above 0.5.

On to C29G C49A U64A, for which the yeast fitness was not above 0.5.

As for C5G G48C C55A, the yeast fitness was not above 0.5.

On to A36U G48C C66U, for which the yeast fitness was not above 0.5.

As for G17C C34G A42C C46U C61G, the yeast fitness is not above 0.5.

In the case of A36C C49U G52A C62A A70U, the yeast fitness is not above 0.5.

Consider A21G C24G A37G C60A A70G, for which the yeast fitness was not above 0.5.

Regarding U2G G10C C61U, the yeast fitness is not above 0.5.

Regarding U3A C34U A45G U53A, the yeast fitness was not above 0.5.

G6A A57U: the yeast fitness came out at 0.629.

As for G38C C55G U59G, the yeast fitness was not above 0.5.

For C29A G39C U54C C60G, the yeast fitness was not above 0.5.

C5G A36C A42G G67A: the yeast fitness was not above 0.5.

As to C4G G18A A21G G25A, the yeast fitness is not above 0.5.

Consider G23A G38A G67C, for which the yeast fitness was not above 0.5.

As to U2G C49G A69C, the yeast fitness is not above 0.5.

Regarding U8G A43C C66G A69U, the yeast fitness was not above 0.5.

Take C33A C62A A69G: the yeast fitness is not above 0.5.

For the variant U3A U8G C27G, the yeast fitness was not above 0.5.

As to G9A C11U C29A A65C, the yeast fitness is not above 0.5.

A15C C24A C66U: the yeast fitness was not above 0.5.

Turning to C5A U16A A45G G50A C61U, the yeast fitness was not above 0.5.

With C33U A37U C46U, the yeast fitness was not above 0.5.

Turning to C31G U54G, the yeast fitness was 0.6.

As to C4U A45C G51A, the yeast fitness stood at 0.501.

Turning to C31G A40G G52C, the yeast fitness was not above 0.5.

With C30G C33G C60G, the yeast fitness was not above 0.5.

As to G6A A36G A43C, the yeast fitness is not above 0.5.

Consider G10A A21G C29A G67C, for which the yeast fitness is not above 0.5.

Consider G39C G48C C61U, for which the yeast fitness is not above 0.5.

With C24U U26A U28G U54G G63A, the yeast fitness was not above 0.5.

Regarding G9C A36C, the yeast fitness was not above 0.5.

Take U26G A57G G68C: the yeast fitness was not above 0.5.

Turning to C4A U16C U35G A45U U47C G51A, the yeast fitness was not above 0.5.

In the case of C5G C24G U26C A37G U54G C61G, the yeast fitness was not above 0.5.

On to G38C A45U U54A C61U A65G, for which the yeast fitness was not above 0.5.

In the case of C49U G51A G63A, the yeast fitness is not above 0.5.

Regarding C4A G23A U53A U64C, the yeast fitness is not above 0.5.

In the case of A20U A70G, the yeast fitness was found to be 0.918.

Take A15G A21C C24G A40U G67U: the yeast fitness is not above 0.5.

Regarding C11U A14G G51C A69U, the yeast fitness is not above 0.5.

C29G U47G G63A: the yeast fitness was not above 0.5.

As to U8G C22U A37C C55G G68C, the yeast fitness is not above 0.5.

Take A57C U64C: the yeast fitness was 0.564.

Regarding C29A G41A A43C C66U, the yeast fitness was not above 0.5.

Consider U2G A57C A70C, for which the yeast fitness is not above 0.5.

In the case of A15C C27U C31A C55U G68A, the yeast fitness was not above 0.5.

As to C24G G25C C30G U32C A57U A65U, the yeast fitness is not above 0.5.

In the case of A40U A57G U59C U64G, the yeast fitness was not above 0.5.

For A14U C46U U59C C62G A65U, the yeast fitness is not above 0.5.

C11U G52A C60A: the yeast fitness was 0.593.

On to U16A A20G C34G A40C C46G, for which the yeast fitness is not above 0.5.

With C33G A45C U53C C62U, the yeast fitness was not above 0.5.

As to U3A C11U U13C C31A C46A A57C, the yeast fitness is not above 0.5.

For the variant G10C C34A A57U, the yeast fitness worked out at 0.577.

Regarding U7C A14G A37U G63A, the yeast fitness is not above 0.5.

As for G6A G17C U19C C29A G44C G48A, the yeast fitness is not above 0.5.

Consider C31U U53G C61G C66G, for which the yeast fitness was not above 0.5.

Take U3C C4U A15G U26A U32A: the yeast fitness worked out at 0.571.

As to G10C U26A C33U G67A, the yeast fitness is not above 0.5.

For C24U G52A A70U, the yeast fitness is not above 0.5.

For A14U C24A C33G C49G A65G, the yeast fitness is not above 0.5.

As to G12A A14C C31U, the yeast fitness is not above 0.5.

As for C5G U28G C31U G51A U54A U59A, the yeast fitness came to 0.522.

As for A37G A42U A43C C46U A70G, the yeast fitness was not above 0.5.

Regarding U8C A14G G68A, the yeast fitness came to 0.534.

In the case of G10C G44U, the yeast fitness was found to be 0.587.

As for A36G G68C A70G, the yeast fitness is not above 0.5.

Regarding A15U G44A A57U, the yeast fitness was not above 0.5.

With U13A A21C, the yeast fitness stood at 0.65.

C22U C31G A43U C60A A70G: the yeast fitness was not above 0.5.

In the case of C5G A40U A42G U53G U54A A70U, the yeast fitness is not above 0.5.

As to U13A A15C A45G C55U, the yeast fitness is not above 0.5.

For the variant C11A A20G C46U G50C, the yeast fitness was not above 0.5.

Turning to G38C U47C U59C, the yeast fitness is not above 0.5.

Regarding G6C C11G A37U A42G, the yeast fitness is not above 0.5.

Consider A57C A65G, for which the yeast fitness worked out at 0.573.

For G23U C27A C46A C49A C55A, the yeast fitness was not above 0.5.

Regarding A43C C49G A57G, the yeast fitness was found to be 0.591.

As to U7C C24G C61U C66G G67A, the yeast fitness is not above 0.5.

On to U26G U32C A40C G48C A65U, for which the yeast fitness was not above 0.5.

As for U3C C11G G51C G52A U59G, the yeast fitness was not above 0.5.

Turning to C11G A14C G18C C29G U54A, the yeast fitness is not above 0.5.

As to U16C A45C G56A C62U, the yeast fitness is not above 0.5.

Take C33U A65U C66U: the yeast fitness was not above 0.5.

In the case of C22U C30U G48A C60G, the yeast fitness was not above 0.5.

In the case of C4G A20U C31G G51A, the yeast fitness was not above 0.5.

Consider A42G G51A C60A, for which the yeast fitness is not above 0.5.

With G9C U16G C29G U35C A40G, the yeast fitness was not above 0.5.

For A43G C49U, the yeast fitness was determined as 0.9.

As to A20C G52C U54A C61U, the yeast fitness was not above 0.5.

For U3G C5G A20C G63C, the yeast fitness is not above 0.5.

Take U16A A21C A45U C60U G67C: the yeast fitness is not above 0.5.

Turning to U2C A65G G68A A69C, the yeast fitness stood at 0.563.

For the variant C5G G12C A20U C24G C49U C55A, the yeast fitness is not above 0.5.

As for C22G G44C C49A, the yeast fitness is not above 0.5.

Consider A14C C31G G44C A69C, for which the yeast fitness is not above 0.5.

U13C G25C C49U G51A: the yeast fitness is not above 0.5.

Turning to G10C A21G G23A C29A, the yeast fitness is not above 0.5.

For U3C U8G A42C, the yeast fitness was not above 0.5.

Regarding U2G A21C C61G G68A, the yeast fitness is not above 0.5.

Turning to C22G A45G C46U, the yeast fitness turned out to be 0.644.

Turning to G23A U26A C30U A40U G44A A69U, the yeast fitness is not above 0.5.

As for C5A A20U A21G C55U C61U A65G, the yeast fitness was not above 0.5.

Consider U19G C22G C34U C49U, for which the yeast fitness is not above 0.5.

Regarding U7G C27G U28G A57U, the yeast fitness was not above 0.5.

Consider G9A U16C A20C C27G A45U C55U, for which the yeast fitness was not above 0.5.

On to C31G G52C C55G, for which the yeast fitness is not above 0.5.

In the case of C4U C22G A37U C62G, the yeast fitness is not above 0.5.

As for U13C G23C C29G A43U G50A A65C, the yeast fitness was not above 0.5.

Consider A14G C22G C30G A57U G68U A70G, for which the yeast fitness is not above 0.5.

Consider U2C U13A G39C, for which the yeast fitness is not above 0.5.

On to C4G A14C C24G U53C C62G, for which the yeast fitness is not above 0.5.

With C24G A43G C49U C55G A57G, the yeast fitness was not above 0.5.

Consider U16A U59A C66U, for which the yeast fitness was not above 0.5.

As for U3C C31G U32C C33U G38C C46G G48C, the yeast fitness is not above 0.5.

On to U3A C4U U7A C24U A69U, for which the yeast fitness is not above 0.5.

Regarding A15U C60G C66G, the yeast fitness is not above 0.5.

For U2G G12A U13A G25C U28A C33A, the yeast fitness is not above 0.5.

With C22U A42U G68A, the yeast fitness was not above 0.5.

Regarding A20U A21C C27A, the yeast fitness was not above 0.5.

In the case of C5G C30U U32A C49G, the yeast fitness was not above 0.5.

On to C30U A37C A69C, for which the yeast fitness was not above 0.5.

For the variant U8G A20G A36U A45U C46A G68A, the yeast fitness was not above 0.5.

Take U3G U13G A14C G39C G41A: the yeast fitness is not above 0.5.

With G6A A14C A43C C60G, the yeast fitness is not above 0.5.

For C27A A57C C61U G63A, the yeast fitness is not above 0.5.

Consider A14G G39A G44C C61A G63C, for which the yeast fitness was not above 0.5.

For the variant C22G A37G G51A, the yeast fitness is not above 0.5.

Consider A36C A65U G68U, for which the yeast fitness was not above 0.5.

Take C5U G17C G25C U47C: the yeast fitness is not above 0.5.

For G17A C27G C55U G68U, the yeast fitness is not above 0.5.

In the case of G6C C34U G52C C66G, the yeast fitness is not above 0.5.

For A45C G48C G50A U53C, the yeast fitness is not above 0.5.

With G6A G10A A21G U28C, the yeast fitness was not above 0.5.

Consider C30G A57U C60G, for which the yeast fitness is not above 0.5.

Take G23C A65U A70G: the yeast fitness is not above 0.5.

With U13G U26A G44A C46U C62G, the yeast fitness was not above 0.5.

Consider C24G C30A C60G, for which the yeast fitness is not above 0.5.

A20U U32A C33U: the yeast fitness is not above 0.5.

Regarding C22A A37U C62G G63A, the yeast fitness is not above 0.5.

Regarding C29U A42G A57C U64C, the yeast fitness was not above 0.5.

As to C22U A37C G58C C61G, the yeast fitness was not above 0.5.

A20U G48A G50A A57U: the yeast fitness was not above 0.5.

On to C24U G39C G68C A70G, for which the yeast fitness is not above 0.5.

A15G C24G C29U C34G U35C C46G A65U: the yeast fitness was not above 0.5.

G6A A36U C49G G56C: the yeast fitness is not above 0.5.

As for C31G U35A G48A, the yeast fitness is not above 0.5.

In the case of C4G C5U G51A U53C C62U, the yeast fitness is not above 0.5.

With U8A A14C C31A, the yeast fitness came out at 0.571.

With C22U G39A C49G, the yeast fitness was not above 0.5.

For G23A U32G G58A, the yeast fitness is not above 0.5.

Take G12C C46A G68U: the yeast fitness was not above 0.5.

As to A21G G25A C60G, the yeast fitness is not above 0.5.

As to A15U G39A U47A G68C, the yeast fitness was not above 0.5.

Take U7A C29U A37C U47C U53A C55U C60A: the yeast fitness is not above 0.5.

With C49A C60G, the yeast fitness came to 0.638.

As for A15G C31A A70U, the yeast fitness worked out at 0.639.
